Measured values: PMC2923778 (Journal of Molecular Biology, 2010)
No constants are given. Whether binding was seen depends on the method and setting.

T1: mSPSB2(12–224) (murine, UniProt O88838 12-224)
T1 construct: murine SPSB2 (SSB-2), residues 12-224: lacks the first 11 residues and the C-terminal SOCS box; Uniformly 15N-labelled in one NMR experiment; also called mSPSB2ΔSB; 15N-mSPSB2(12–224); source: E. coli Origami B(DE3) pLysS, GST fusion, purified (glutathione-Sepharose, thrombin cleavage, gel filtration)
T1 sequence (looked up): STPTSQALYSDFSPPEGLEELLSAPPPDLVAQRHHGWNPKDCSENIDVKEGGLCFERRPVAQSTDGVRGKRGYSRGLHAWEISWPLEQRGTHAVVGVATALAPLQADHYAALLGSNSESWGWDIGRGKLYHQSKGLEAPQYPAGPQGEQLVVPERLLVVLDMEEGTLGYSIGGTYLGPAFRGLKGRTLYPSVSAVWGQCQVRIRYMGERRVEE


Molecular target: T1, mSPSB2(12–224)
Assay: ITC; 100 μM peptide titrated into 10 μM mSPSB protein; 22 °C; 20 mM Tris, 150 mM sodium chloride, 2.5 mM calcium chloride, pH 8.0; single binding site model; both purified

| binding | Binder |
| --- | --- |
| no binding (tested: Kd > 50 μM) | AAANELANNLPGGA (human prostate apoptosis response protein-4 (hPar-4), residues 64-77, N70A; source: synthetic peptide (GenScript Corporation)) [[N70A]hPar-4(64–77)] |
| no binding (tested: Kd > 50 μM) | AAANELNANLPGGA (human prostate apoptosis response protein-4 (hPar-4), residues 64-77, N71A; source: synthetic peptide (GenScript Corporation)) [[N71A]hPar-4(64–77)] |
